Experimental data as given in PubChem BioAssay AID588463 (National Center for Advancing Translational Sciences (NCATS), 2011).
Screen size: about 1,200 compounds; about 15 (1%) were called active. Roughly 7% stayed inconclusive and do not appear here. The call rests on the fitted dose curve; in most records, active means well fitted activation curve with a large enough effect; inconclusive means small, poorly fitted or top-dose-only effect; inactive means flat fitted curve, though single readings scatter. Some of the results follow.

Target: Beta-2 adrenergic receptor (Homo sapiens) (UniProt P07550)
Experiment: qHTS assay of beta-arrestin-biased ligands of beta2-adrenergic receptor: Hit Validation;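 further: plate controls were DMSO for no effect and maximal isoproterenol or metaproterenol response for full effect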
Conditions: cell-based beta-arrestin recruitment to beta2AR; Potency: activation; series mostly up to 46.1 µM; activation: at the top concentration
Procedure, shortened: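 Luminescent tTA-driven luciferase reporter in Tango cells, read after 18 h at 37 °C with compound and 15 min with substrate mix (0.15 mM ATP, 0.44 mM D-luciferin, final). Concentration-response fits categorized by curve class.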

Row | SMILES | activation | Potency
1 | Cc1onc(-c2c(F)cccc2Cl)c1C(=O)N1CCSCC1 | inactive: -6.47% | –
2 | CC1=NN(C(N)=S)C(=O)C1N=Nc1cc(Cl)ccc1Cl (configuration not stated) | inactive: -0.245% | –
3 | Cc1cc(C)nc(-n2nc(C)cc2NC(=O)CN2CCC(C)CC2)n1 | inactive: -2.72% | –
4 | CCOc1ccc2c(c1)C(C)=CC(C)(C)N2C(=O)Nc1ccccc1F | inactive: -1.04% | –
5 | CN1CCC(=C2c3ccccc3C=Cc3ccccc32)CC1 | inactive: -2.63% | –
6 | Cc1oc(-c2ccccc2Cl)nc1CN1CCCCC1c1cccnc1 (configuration not stated) | inactive: -3.35% | –
7 | COc1ccc(C(=O)NCC(=O)N/N=C/c2ccc([N+](=O)[O-])o2)cc1OC | inactive: -2.91% | –
8 | CCOC(=O)c1ccc(NC(=S)NNC(C)(C)C)cc1 | inactive: -2.78% | –
9 | CCOc1ccc2nc(N3C(=O)CNC3=S)sc2c1 | inactive: -3.41% | –
10 | S=C(N/N=C/c1ccc(Cl)c(Cl)c1)Nc1ccccc1Cl | inactive: -4.07% | –
11 | Cc1ccc(OCC(=O)N/N=C/C=C/c2ccco2)c(Br)c1 | inactive: -1.89% | –
12 | CCOC(=O)c1cnc(Nc2nc3ccccc3o2)nc1CSC(=S)N(CC)CC | inactive: -0.875% | –
13 | COc1ccc(NC(=O)CSc2nc3c(c(=O)n2-c2ccccc2)SCC3)c(OC)c1 | inactive: -2.06% | –
14 | Cc1cccc(NC(=O)CSc2cccc3cccnc23)c1C | inactive: -3.45% | –
15 | CN(C)c1cccc(C(=O)OCC(=O)Nc2nccs2)c1 | inactive: -3.62% | –
16 | COCCNC(=S)N/N=C(\C)c1cccc(C(F)(F)F)c1 | inactive: -2.84% | –
17 | Cc1nnc(NC(=O)c2ccc3ccccc3c2)o1 | inactive: -1.26% | –
18 | Cc1nc2ccccc2c(=O)n1N | inactive: -1.37% | –
19 | CC1=C(C(=O)N2CCOCC2)C(c2ccc(Cl)cc2)NC(=S)N1 (configuration not stated) | inactive: -1.53% | –
20 | C=CCNC(=S)Nc1cc(C)ccn1 | inactive: -3.23% | –
21 | S=C1SCN(Cc2ccco2)CN1Cc1ccco1 | inactive: -4.11% | –
22 | O=C(NCCN1CCOCC1)c1cc(Br)ccc1Cl | inactive: -2.79% | –
23 | COc1nc(OC)nc(Oc2ccc([N+](=O)[O-])cc2Cl)n1 | inactive: -3% | –
24 | Fc1cccc(F)c1/C=N/NC(=S)Nc1cccnc1 | inactive: 0.332% | –

Part of the list above, tab-delimited.
Row	SMILES	activation	Potency
9	CCOc1ccc2nc(N3C(=O)CNC3=S)sc2c1	inactive: -3.41%	–
10	S=C(N/N=C/c1ccc(Cl)c(Cl)c1)Nc1ccccc1Cl	inactive: -4.07%	–
11	Cc1ccc(OCC(=O)N/N=C/C=C/c2ccco2)c(Br)c1	inactive: -1.89%	–
12	CCOC(=O)c1cnc(Nc2nc3ccccc3o2)nc1CSC(=S)N(CC)CC	inactive: -0.875%	–
13	COc1ccc(NC(=O)CSc2nc3c(c(=O)n2-c2ccccc2)SCC3)c(OC)c1	inactive: -2.06%	–
14	Cc1cccc(NC(=O)CSc2cccc3cccnc23)c1C	inactive: -3.45%	–

Continued.

Row | SMILES | activation | Potency
25 | CNS(=O)(=O)c1cc(NC(=O)c2cnc(SC)n2-c2ccccc2)ccc1C | inactive: 5.19% | –
26 | CC1S/C(=N/N=C2CCCCC2)NC1=O (configuration not stated) | inactive: -1.28% | –
27 | COc1ccccc1/C(C)=N/NC(=S)NCc1ccccc1 | inactive: -1.72% | –
28 | COc1cc(OC)c(NS(=O)(=O)c2cc(C(=O)OC(C)C(=O)NC3CC3)c(Cl)cc2Cl)cc1Cl (configuration not stated) | inactive: -0.815% | –
29 | COCCNC(=S)N/N=C(\C)c1ccc(Cl)s1 | inactive: -2.92% | –
30 | CCOC(=O)c1ccccc1NC1c2ccccc2C(=O)N1C1CCN(C(=O)OCC)CC1 (configuration not stated) | inactive: 2.96% | –
31 | O=C(O)/C=C/c1nc(-c2ccccc2)n2ccccc12 | inactive: -2.97% | –
32 | Cc1cc(NC(=O)CSc2nnnn2-c2ccccc2C)no1 | inactive: -3.25% | –
33 | C=CCNC(=S)NNC(=O)COc1ccc(Cl)cc1Cl | inactive: -4.69% | –
34 | S=C(NCc1ccccn1)Nc1ccc(Cl)c(Cl)c1 | inactive: -3.46% | –
35 | COc1ccc(CCN(C)CCCC(C#N)(c2cc(OC)c(OC)c(OC)c2)C(C)C)cc1OC (configuration not stated) | inactive: 7.14% | –
36 | Cc1ccc(CONC(=O)c2ccccc2Cl)cc1 | inactive: -3.35% | –
37 | CN(C)c1ccc(NC(=O)Oc2ccccc2)cc1 | inactive: -1.95% | –
38 | Cc1ccc2nc(NC(=O)COC(=O)c3ccc(Br)o3)sc2c1 | inactive: -1.88% | –
39 | CCCCOc1ccc(NC(=O)CSc2cccc3cccnc23)cc1 | inactive: -0.82% | –
40 | COC(=O)c1scc(C)c1S(=O)(=O)Nc1ccc(C)cc1 | inactive: -3.22% | –
41 | C=CCOc1ccc2ccccc2c1CNn1c(C)n[nH]c1=S | inactive: -2.87% | –
42 | CC1CCCCN1C(=S)NC(=O)c1cccs1 (configuration not stated) | inactive: -1.73% | –
43 | CS/C(N)=N/N=C/c1cc(Br)cc(Br)c1O | inactive: -2.45% | –
44 | S=C(NCc1ccccc1)Nc1ccc2ccccc2c1 | inactive: -2.09% | –
45 | Cc1ccc(CNc2ccc(N3C(=O)CCCC3=O)cc2[N+](=O)[O-])cc1 | inactive: -3.89% | –
46 | CCOC(=O)c1sc(NC(=O)CSc2nnc(C(C)C)n2C)nc1C | inactive: -3.85% | –
47 | CC(=Nc1ccccc1O)c1sc2ccccc2c1O | inactive: -3.52% | –
48 | Cc1ccc2c(c1)C1CN(C)CCC1N2C(=O)c1ccccc1NS(=O)(=O)c1ccc(F)cc1C (configuration not stated) | inactive: -2.77% | –

Row | SMILES | activation | Potency
49 | COc1ccc(C[C@@H]2CN3C(=NC[C@@H]3Cc3ccc(O)cc3)N2C[C@H](C)NC(=O)CCC2CCCCC2)cc1 | inactive: 1.59% | –
50 | CC1=NN(C(N)=S)C(=O)C1N=Nc1c(C)cc(C)cc1C (configuration not stated) | inactive: -2.37% | –
51 | C=C(C)CNC(=S)NNC(=O)c1ccco1 | inactive: -0.272% | –
52 | CCn1c(SCC(=O)c2ccc(F)cc2)nnc1-c1ccoc1C | inactive: -2.69% | –
53 | COC(=O)N1C(=O)[C@@](c2ccccc2)(C2CCCCC2)N1C(=O)OC | inactive: -0.705% | –
54 | C/C(=N\NC(=O)c1ccccc1[N+](=O)[O-])c1c(O)cc(C)oc1=O | inactive: -2.83% | –
55 | Cc1ccc([N+](=O)[O-])cc1N=Nc1c(-c2ccc([N+](=O)[O-])cc2)[nH]n(C(N)=S)c1=O | inactive: -2.19% | –
56 | CC(/C=C/c1ccccc1)=N\NC(N)=S | inactive: -0.909% | –
57 | CNc1nc(-c2ccc3c(c2)CCN3C(=O)c2cccc(F)c2)cs1 | inactive: -3.05% | –
58 | C=CCn1c(-c2ccccc2)c[nH]c1=S | inactive: -5.21% | –
59 | CCOC(=O)C1=CN(Cc2cccc(-c3cccnc3)c2)S(=O)(=O)N(CC)C1C (configuration not stated) | inactive: -2.1% | –
60 | CC(C)(C)NC(=S)NCc1ccc2c(c1)OCO2 | inactive: -2.18% | –
61 | C=CCNC(=S)N/N=C/c1cn(C)c2ccccc12 | inactive: -0.545% | –
62 | COc1ccccc1N1CCN(C(=O)c2cc3ccccc3[nH]2)CC1 | inactive: -2.66% | –
63 | O=C(O)CC1S/C(=N/N=C2CCCCC2)N(c2ccccc2)C1=O (configuration not stated) | inactive: -2.11% | –
64 | N#CC1=C(N)SC(C(=O)c2ccccc2)C1c1cccs1 (configuration not stated) | inactive: -2.87% | –
65 | CCCOc1ccc(C(=O)Nc2nc(C)c(Cc3ccc4c(c3)OCO4)s2)cc1 | inactive: -4.09% | –
66 | COc1ccc(CNc2nc(SCC(=O)NCc3ccco3)nc3ccccc23)cc1 | inactive: -0.667% | –
67 | CCOCCCNC(C(=O)Nc1ccc(OC)c(Cl)c1)c1ccccc1 (configuration not stated) | inactive: -3.37% | –
68 | COC(=O)CSc1ccc2nnc(-c3ccc(OC)c(OC)c3)n2n1 | inactive: -2.65% | –
69 | CCOc1cc(/C=N\Nc2nc(-c3ccc(C)cc3)c(NC(C)=O)s2)ccc1O | inactive: -4.03% | –
70 | COCC(=O)Nc1cc(C(=O)NCCc2ccccc2)ccc1Cl | inactive: -3.24% | –
71 | OCc1ccnc2c(O)cccc12 | inactive: -1.34% | –
72 | CN(C)S(=O)(=O)c1cccc(NC(=S)N/N=C/c2ccco2)c1 | inactive: 2.56% | –

Row | SMILES | activation | Potency
73 | Cc1ccc2nc(Cl)c(C3CC(c4cccs4)=NN3C(=O)CCCC(=O)O)cc2c1 (configuration not stated) | inactive: -2.53% | –
74 | Cc1cc(N2CCCC2)ccc1/C=C1\NC(=S)N(C)C1=O | inactive: 0.246% | –
75 | C/C(=N\NC(=O)c1ccco1)c1ccc(NC(=O)C(F)(F)F)cc1 | inactive: -3.65% | –
76 | CNC(=S)N/N=C(\C)c1ccccc1 | inactive: -1.21% | –
77 | O=C1CCCC(=O)N1c1ccc(N2CCN(c3ccccc3)CC2)c([N+](=O)[O-])c1 | inactive: -2.26% | –
78 | CCOc1ccc(NC(=S)NC(=O)C2CCCC2)cc1 | inactive: -2.21% | –
79 | COc1ccc2c(c1)c(=O)c(C(=O)c1ccccc1)cn2Cc1ccccc1 | inactive: -1.85% | –
80 | COc1ccc(C)cc1-n1nnnc1SCC(=O)N1CCC(C(=O)Nc2nccs2)CC1 | inactive: -3.38% | –
81 | Cc1ccc(C(C[N+](=O)[O-])Sc2ccc(N)cc2)cc1 (configuration not stated) | inactive: -3.27% | –
82 | COc1ccc(/C=N/Nc2nnc(Cc3ccc(OC)c(OC)c3)c(=O)[nH]2)cc1 | inactive: -2.15% | –
83 | CC1=C/C(=N\NC(=S)NCc2ccccc2)CC1 | inactive: -4.13% | –
84 | O=C(NC(=S)N1CCCCCC1)c1ccccc1Cl | inactive: -2.85% | –
85 | NC(=S)N=Nc1c(O)n(CCCl)c2ccc(Cl)cc12 | inactive: -3.45% | –
86 | Cc1ccc(/C=C/C(=O)N2CCN(c3ncccn3)CC2)o1 | inactive: -1.3% | –
87 | CCCCCCCCN1C(=O)N(C)C(N(O)C(=O)NC)C1(C)C (configuration not stated) | inactive: -3.26% | –
88 | CCCNC(C)C(=O)Nc1ccccc1C (configuration not stated) | inactive: -0.511% | –
89 | CC1=NN(C(N)=S)C(=O)C1N=Nc1cccc(Cl)c1 (configuration not stated) | inactive: -2.92% | –
90 | CCOC(=O)/C(C#N)=C/Nc1ccsc1C(=O)OC | inactive: -3.19% | –
91 | Nc1ncc(-c2ccccc2)n1CC1CCCO1 (configuration not stated) | inactive: -1.47% | –
92 | CN(C)c1ccc(NC(=S)c2ccc3ccccc3n2)cc1 | inactive: -2.5% | –
93 | COc1ccccc1CN1C[C@@H]2C[C@@H](c3ccc4nsnc4c3)N3CCC[C@@]23C1=O | inactive: -1.58% | –
94 | CN(C)C=Nc1nonc1-c1ccc(Cl)cc1 | inactive: -4.78% | –
95 | CCc1cc(=O)oc2cc3occ(C)c3cc12 | inactive: -1.07% | –
96 | CN(C)/C=C/C(=O)c1ccc(Oc2ncccn2)cc1 | inactive: -1.47% | –

Row | SMILES | activation | Potency
97 | COc1ccc(-c2cn3cccnc3n2)cc1F | inactive: -3.26% | –
98 | O=C(Nc1nc(-c2ccccn2)cs1)Nc1ccc(F)cc1F | inactive: 0.564% | –
99 | CCCCc1nnc(NC(=O)c2ccccc2OCc2c(C)noc2C)s1 | inactive: -1.03% | –
100 | C=CCn1nc([N+](=O)[O-])nc1Sc1cccc2cccnc12 | inactive: -2.64% | –
101 | Fc1ccccc1/C=N/n1cc(-c2ccccc2)[nH]c1=S | inactive: -0.859% | –
102 | COc1cc(/C=C2\SC(=N)N(c3ccc4c(c3)OCO4)C2=O)cc(OC)c1O | inactive: -0.457% | –
103 | Cc1nc2ccc(NC(=O)CS(=O)(=O)c3ccc(F)cc3)cc2s1 | inactive: -1.23% | –
104 | Cc1cccc(N(C(=O)CNC(=O)c2cccs2)C(C(=O)NC2CCCC2)c2ccncc2)c1 (configuration not stated) | inactive: 5.2% | –
105 | Cc1ccc(C)c(OCC(=O)NCC(C)C)c1C | inactive: -3.09% | –
106 | Cc1ccccc1NC(=S)Nc1ccccn1 | inactive: -0.855% | –
107 | N#C/C(=C\c1c(Cl)cccc1Cl)c1nc2ccccc2o1 | inactive: -1.61% | –
108 | COCCCN=C1NN=C(c2cc(C)n(-c3ccccc3)c2C)CS1 | inactive: -1.56% | –
109 | O=C(OCC1CC(c2ccccc2)=NO1)c1ccco1 (configuration not stated) | inactive: 0.568% | –
110 | S=C(Nc1ccccn1)c1ccccn1 | – | inactive
111 | CCOC(=O)c1c(-c2ccco2)csc1NC(=O)COC(=O)c1cnccn1 | inactive: -2.12% | –
112 | COc1cc2c(cc1OC)C(c1cc3ccccc3oc1=O)=NC(C)(C)C2 | inactive: -4.34% | –
113 | CCn1nnnc1SCC(=O)Nc1nc2ccc(OC)cc2s1 | inactive: -0.634% | –
114 | CCN(CC)S(=O)(=O)c1ccc(N=Nc2c(C)[nH]n(C(N)=S)c2=O)cc1 | inactive: -2.88% | –
115 | Cc1cccc2c1c1ccc3c(c1n2C)C(=O)C=CC3=O | inactive: -2.88% | –
116 | C[C@H](CO)N1C[C@H](C)[C@@H](CN(C)Cc2ccc(-c3ccccc3)cc2)Oc2c(NC(=O)Cc3ccccc3)cccc2C1=O | inactive: 4.09% | –
117 | Cn1c(=S)[nH]c2c(c1=O)C(C)(C)Cc1ccccc1-2 | inactive: -4.04% | –
